For two molecules, binding results are on record in paper PMC5636754, “Structural and biochemical characterization of DAXX-ATRX interaction” (Protein & Cell, 2017).

Sequences of proteins named here, by UniProt entry; tags and fusion partners are left off. Residues count along the entry.
UniProt Q9UER7, residues 55-144: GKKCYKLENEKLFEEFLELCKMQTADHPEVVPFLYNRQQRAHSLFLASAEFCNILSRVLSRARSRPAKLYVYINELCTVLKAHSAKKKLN
UniProt Q00987, residues 293-317: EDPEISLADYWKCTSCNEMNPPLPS

The target in the experiment is DAXX helical bundle (DHB) domain of death domain-associated protein (DAXX), aa 55-144 (UniProt Q9UER7). In words: native gel or EMSA; preformed DHB_(DAXX)-ATRX_(1,244–1,285) complex incubated with competitor peptides of different concentration, native-PAGE, Coomassie blue staining; both purified.

These are yes or no findings as the source states them, for the method shown. Some results given as binding are weak or reduced against the parent protein; the word gives no strength.

As for “Mdm2_(293–317) competitor peptide (from UniProt Q00987 293-317)”, the binding result is recorded as “binds”.
For GYCSQEDSDSELEQYFTARTSLARR (peptide, UniProt Q9NS23-4 20-44) [Rassf1c_(20–44) competitor peptide] the value was “binds”.
